Experimental data from PMC12213294.
These are yes or no findings as the source states them, for the method shown. In cells and extracts the contact can be indirect. Some binding calls cover weakened binding; strength is not graded here. Sequences can lack the tags named with a protein.

Amino acid sequences for entries named in this document (tags omitted).
UniProt O00308: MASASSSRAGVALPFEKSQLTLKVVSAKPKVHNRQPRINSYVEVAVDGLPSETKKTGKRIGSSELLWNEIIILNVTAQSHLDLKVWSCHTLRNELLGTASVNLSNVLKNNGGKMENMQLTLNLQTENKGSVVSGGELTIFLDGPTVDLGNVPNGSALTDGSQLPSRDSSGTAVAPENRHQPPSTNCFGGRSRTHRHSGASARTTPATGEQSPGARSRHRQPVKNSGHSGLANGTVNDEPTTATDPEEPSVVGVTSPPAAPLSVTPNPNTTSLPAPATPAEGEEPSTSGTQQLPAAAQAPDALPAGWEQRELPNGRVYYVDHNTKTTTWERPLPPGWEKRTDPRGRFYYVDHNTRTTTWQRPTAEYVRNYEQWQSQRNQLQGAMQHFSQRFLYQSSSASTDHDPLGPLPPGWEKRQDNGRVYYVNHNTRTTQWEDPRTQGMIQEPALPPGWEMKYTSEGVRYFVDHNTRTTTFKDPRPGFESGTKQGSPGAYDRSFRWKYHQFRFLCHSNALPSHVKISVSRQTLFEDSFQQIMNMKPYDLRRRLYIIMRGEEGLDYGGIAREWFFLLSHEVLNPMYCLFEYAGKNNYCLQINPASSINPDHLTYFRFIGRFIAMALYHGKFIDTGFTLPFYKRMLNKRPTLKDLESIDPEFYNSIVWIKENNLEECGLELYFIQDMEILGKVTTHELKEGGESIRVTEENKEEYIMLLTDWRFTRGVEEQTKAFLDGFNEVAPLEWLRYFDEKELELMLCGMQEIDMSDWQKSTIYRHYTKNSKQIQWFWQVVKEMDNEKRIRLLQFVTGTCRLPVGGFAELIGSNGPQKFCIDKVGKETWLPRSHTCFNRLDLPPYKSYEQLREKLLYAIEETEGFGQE

Target: endogenous WWP2 (human (endogenous in HEK293T)) (UniProt O00308)
Assay: co-IP; HA-ARRDC3 expressed in HEK293T; IP of endogenous WWP2 with anti-WWP2 or IgG, blot for HA; 1% NP-40 lysis buffer, overnight at 4 °C

binding: binds
B1: HA-ARRDC3 wild-type (protein, UniProt Q96B67 1-414)
chain: MVLGKVKSLTISFDCLNDSNVPVYSSGDTVSGRVNLEVTGEIRVKSLKIHARGHAKVRWTESRNAGSNTAYTQNYTEEVEYFNHKDILIGHERDDDNSEEGFHTIHSGRHEYAFSFELPQTPLATSFEGRHGSVRYWVKAELHRPWLLPVKLKKEFTVFEHIDINTPSLLSPQAGTKEKTLCCWFCTSGPISLSAKIERKGYTPGESIQIFAEIENCSSRMVVPKAAIYQTQAFYAKGKMKEVKQLVANLRGESLSSGKTETWNGKLLKIPPVSPSILDCSIIRVEYSLMVYVDIPGAMDLFLNLPLVIGTIPLHPFGSRTSSVSSQCSMNMNWLSLSLPERPEAPPSYAEVVTEEQRRNNLAPVSACDDFERALQGPLFAYIQEFRFLPPPLYSEIDPNPDQSADDRPSCPSR
